# Results from paper PMC5948853.
# Protein sequences, listed by entry. Tags and fused reporters are not part of them. Lines headed by an entry give the natural chain unless they say otherwise; changes in a name come on top. Residues count along the entry.
# UniProt P42224: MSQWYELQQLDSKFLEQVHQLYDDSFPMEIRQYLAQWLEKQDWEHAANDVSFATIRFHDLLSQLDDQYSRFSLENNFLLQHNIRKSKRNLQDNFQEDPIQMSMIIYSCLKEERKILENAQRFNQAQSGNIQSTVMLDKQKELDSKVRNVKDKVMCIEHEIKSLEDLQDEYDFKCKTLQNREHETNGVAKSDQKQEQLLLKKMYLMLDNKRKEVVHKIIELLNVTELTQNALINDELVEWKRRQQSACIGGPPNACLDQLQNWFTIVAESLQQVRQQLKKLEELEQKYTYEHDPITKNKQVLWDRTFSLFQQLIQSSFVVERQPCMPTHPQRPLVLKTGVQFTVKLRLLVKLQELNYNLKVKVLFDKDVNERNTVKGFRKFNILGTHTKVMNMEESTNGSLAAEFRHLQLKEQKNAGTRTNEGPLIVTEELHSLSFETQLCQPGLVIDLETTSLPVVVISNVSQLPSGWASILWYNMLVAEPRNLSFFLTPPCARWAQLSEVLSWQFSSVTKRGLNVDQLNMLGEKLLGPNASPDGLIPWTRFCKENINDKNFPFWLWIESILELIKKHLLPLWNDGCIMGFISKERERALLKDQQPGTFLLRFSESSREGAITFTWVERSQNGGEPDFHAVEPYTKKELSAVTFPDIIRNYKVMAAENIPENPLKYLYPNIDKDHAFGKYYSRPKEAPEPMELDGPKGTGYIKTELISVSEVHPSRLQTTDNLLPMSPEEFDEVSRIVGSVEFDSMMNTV
# STAT1β-myc (signal transducer and activator of transcription 1, isoform β): residues 1-712 of P42224
# UniProt P37023, residues 22-503: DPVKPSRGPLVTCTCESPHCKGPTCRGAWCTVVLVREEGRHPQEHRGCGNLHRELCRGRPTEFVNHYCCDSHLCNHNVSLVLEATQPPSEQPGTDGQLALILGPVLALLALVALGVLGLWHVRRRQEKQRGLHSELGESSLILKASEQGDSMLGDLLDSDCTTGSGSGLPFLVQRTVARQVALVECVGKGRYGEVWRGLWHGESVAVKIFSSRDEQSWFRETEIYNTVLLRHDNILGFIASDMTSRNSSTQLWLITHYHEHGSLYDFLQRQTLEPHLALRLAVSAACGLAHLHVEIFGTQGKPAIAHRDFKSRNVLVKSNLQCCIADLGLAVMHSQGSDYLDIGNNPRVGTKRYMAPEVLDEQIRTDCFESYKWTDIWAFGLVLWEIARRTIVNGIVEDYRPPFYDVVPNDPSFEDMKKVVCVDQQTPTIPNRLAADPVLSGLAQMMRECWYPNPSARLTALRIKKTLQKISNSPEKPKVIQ
# UniProt P37173, residues 23-567: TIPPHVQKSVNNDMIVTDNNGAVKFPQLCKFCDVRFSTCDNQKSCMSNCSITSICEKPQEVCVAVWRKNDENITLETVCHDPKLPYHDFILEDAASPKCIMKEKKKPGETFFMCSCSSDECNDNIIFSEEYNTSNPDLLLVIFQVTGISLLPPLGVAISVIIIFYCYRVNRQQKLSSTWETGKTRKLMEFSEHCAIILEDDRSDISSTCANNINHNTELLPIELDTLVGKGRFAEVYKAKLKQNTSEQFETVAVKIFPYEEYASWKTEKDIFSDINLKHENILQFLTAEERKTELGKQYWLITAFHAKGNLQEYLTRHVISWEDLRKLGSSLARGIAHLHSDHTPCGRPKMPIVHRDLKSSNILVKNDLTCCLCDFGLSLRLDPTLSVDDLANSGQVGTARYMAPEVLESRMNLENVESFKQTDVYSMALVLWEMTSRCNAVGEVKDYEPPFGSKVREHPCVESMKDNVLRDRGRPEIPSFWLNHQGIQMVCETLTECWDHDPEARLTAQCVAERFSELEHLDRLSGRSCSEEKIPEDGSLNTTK
# No constants are given. Whether binding was seen depends on the method and setting. Binding seen in cells or lysates may run through a third protein. Some results given as binding are weak or reduced against the parent protein; the word gives no strength. Tags and fused reporters may be left off the sequences shown.
# Legend:
# [1] = target: STAT1α-myc (signal transducer and activator of transcription 1, isoform α) (UniProt P42224); experiment: co-IP; HEK-293T co-transfected with STAT1α-myc or STAT1β-myc and ALK1-HA, ALK5-HA or TβRII-HA, 48 h; RIPA lysate (500 μg protein) with anti-Myc or anti-HA IP affinity gel overnight at 4 °C; immunoblot with anti-HA or anti-myc; also in the absence or presence of TGF-β1 (10 ng/ml) for 24 and 48 h
# [2] = target: STAT1β-myc (signal transducer and activator of transcription 1, isoform β) (UniProt P42224); experiment: as above
binding [1],binding [2],Molecule
binds,binds,"ALK1-HA (activin receptor-like kinase 1, TGF-β type I receptor) (from UniProt P37023 22-503)"
binds,binds,TβRII-HA (TGF-β type II receptor) (from UniProt P37173 23-567)
binds,binds,"ALK5-HA (activin receptor-like kinase 5, TGF-β type I receptor) (receptor, UniProt P36897 34-503) LQCFCHLCTKDNFTCVTDGLCFVSVTETTDKVIHNSMCIAEIDLIPRDRPFVCAPSSKTGSVTTTYCCNQDHCNKIELPTTVKSSPGLGPVELAAVIAGPVCFVCISLMLMVYICHNRTVIHHRVPNEEDPSLDRPFISEGTTLKDLIYDMTTSGSGSGLPLLVQRTIARTIVLQESIGKGRFGEVWRGKWRGEEVAVKIFSSREERSWFREAEIYQTVMLRHENILGFIAADNKDNGTWTQLWLVSDYHEHGSLFDYLNRYTVTVEGMIKLALSTASGLAHLHMEIVGTQGKPAIAHRDLKSKNILVKKNGTCCIADLGLAVRHDSATDTIDIAPNHRVGTKRYMAPEVLDDSINMKHFESFKRADIYAMGLVFWEIARRCSIGGIHEDYQLPYYDLVPSDPSVEEMRKVVCEQKLRPNIPNRWQSCEALRVMAKIMRECWYANGAARLTALRIKKTLSQLSQQEGIKM"
